Results of single-concentration screens

A: 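Growth of Mycobacterium tuberculosis over 4 days (cholesterol / DPPC medium with tyloxapol); the read-out is not stated. Compounds at 50 µM. The record gives no direction; compounds that gave an IC50 in retests scored well above the rest, so higher reads as more growth inhibition. Of about 69,000 compounds tested this way, about 370 (0.54%) reached 50% or more in at least one test.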
B: 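Whole-cell growth test on Mycobacterium tuberculosis, read after 3 days in glucose-containing 7H9 medium; the read-out is not stated. Compounds at 50 µM. Direction is inferred from retests: higher values go with more growth inhibition. Size under these conditions: about 69,000 compounds, about 760 of them at 50% or above in at least one test.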

Values are the deposited “Percent Effect”, in %. The record does not define 0% and 100%; most values in the screen are far below 50% and negative numbers occur (in some assays of this library far below -100). The compounds are a random part of those screened. Two or more numbers in one place are separate tests of the same structure; such repeats can differ widely.

| Compound | A | B |
|---|---|---|
| `Cc1ccc2cccc(S(=O)(=O)N(C)CC3CCN(C)C3)c2n1` (configuration not stated) | 16.47% | 38.21% |
| `CCCc1nnc(NCCc2noc(C3CC3)n2)o1` | -2.489% | 0.2201% |
| `CCCc1nnc(N2CCC(C3CCN(C)CC3)CC2)o1` | -29.52% | -54.43% and -12.6% |
| `COCCCSc1ccc(NCc2ccc(C)cn2)cc1` | 15.48% | 35.96% and 44.38% |
| `[H][C@@]12CS(=O)(=O)C[C@]1([H])N(C(=O)c1cncnc1C)CCN2CCC` | -38.16% | -42.25% |
| `O=C(NCCN1CCOCC1)c1ccc(OCc2ccccc2)nc1` | 0.3162% | 9.234% |
| `Cc1ccsc1CCNC(C)C(=O)NC1CCCC1` (configuration not stated) | 27.97% | 15.95% |
| `CC(C)CC(=O)Nc1ccc(Oc2ccsc2C(=O)O)cc1` | -10.76% | 8.727% and -28.86% |
| `O=C1C(Nc2nccn3cnnc23)CCCN1c1ccccc1Cl` (configuration not stated) | -19.1% | -1.544% |
| `Cc1ccccc1C(=O)NCc1ccc(N2CCNC(=O)C2)c(F)c1` | 20.53% | -5.669% |
| `[H][C@@]12CS(=O)(=O)C[C@]1([H])N(Cc1ccc(OC)c(C)c1)CCN2CC1CC1` | 6.768% and -7.612% | -30.3% |
| `CN1CCc2c(NC(=O)NCc3ccccc3Cl)cccc21` | -14.01% | -15.36% |
| `[H][C@@]12CCC(=O)N(CCOC)[C@@]1([H])CCN2S(=O)(=O)C1CC1` | 6.426% | 1.303% |
| `O=C(c1ccc2c(c1)COC2)N1CCN(CC2CC2)CC1` | 34.75% | -2.97% |
| `COC(=O)[C@@H](Nc1nc(C2CCCC2)nc2c1cnn2C)[C@@H](C)O` | -15.4% | 0.8466% |
| `CCCC(Nc1c(C#N)c(=O)n(C)c(=O)n1C)c1ccc(F)cc1F` (configuration not stated) | 7.304% | 7.067% |
| `Cn1cc(NC(=O)c2cc3c(s2)CCCC3)cn1` | 8.992% | 30.07% |
| `O=C(NC1CC1)C1CCCN(c2cccc(C(F)(F)F)n2)C1` (configuration not stated) | 32.44% | 45.74% |
| `COCC(=O)N1CCC2(CC1)CN(CC1CC1)c1ccc(F)cc12` | 12.44% | 39.74% |
| `O=C(CN1CC(n2cccn2)C1)NCC1(c2ccccc2)CCC1` | -35.59% and 3.844% | -50% |
| `CCC(CNC(=O)OC)(OC)c1ccccc1` (configuration not stated) | 9.439% | -1.353% and 39.79% |
| `Cc1nn(C)c(C)c1C1CCCN1c1ncnc2sccc12` (configuration not stated) | -12.33% and -1.451% | -40.88% |
| `c1ccc(-c2nc(SCc3nnc(C4CC4)o3)n[nH]2)nc1` | -13.93% | -41.53% and 6.052% |
| `O=C(O)C(F)(F)F.c1cnc(NCc2nnn3c2CN(Cc2cccs2)CCC3)nc1` | -12.55% | 0.869% |
| `CC(C)NC(=O)N1CCCCCC1C1CCN(c2ncccn2)CC1` (configuration not stated) | -9.111% | -9.067% and -21.68% |
| `O=C(NC1CCc2c(ccc(=O)n2CC2CC2)C1)c1ccsc1` (configuration not stated) | 1.377% | 4.647% and -0.2869% |
| `CN1CCOC(CNCc2cnc(C(C)(C)C)s2)C1` (configuration not stated) | 6.907% | 5.898% |
| `CCN1C(=O)C2(CCOCC2)c2cc(NC(=O)c3cc(C)n[nH]3)ccc21` | -16.26% | -9.854% and -0.8897% |
| `COCC1CC2(CCN(c3cc(OC)ncn3)CC2)CN1C(C)C.O=C(O)C(F)(F)F` (configuration not stated) | -7.652% | 10% |
| `COc1cc2nc(C)n(CC(=O)NCCN(C)C)c(=O)c2cc1OC` | -29.88% | -22.29% |
| `[H][C@@]12CCN(c3ncccn3)C[C@]1([H])O[C@@H](C(=O)NCCOC)C2` | 4.143% | 7.896% |
| `CN(C)[C@H]1CN(C(=O)c2ccc3sc4c(c3c2)CCNC4=O)C[C@@H]1O` | -12.47% and -0.1095% | -24.92% |
| `CC(C)N1CCC(Nc2ccn(Cc3ccccn3)n2)C1=O` (configuration not stated) | 10.92% and -2.448% | -2.31% and 20.42% |
| `COCC[C@]1(O)CCN(C(=O)C2CCN(C3CCCC3)CC2)C[C@H]1C` | 22.22% | -8.246% |
| `O=C(O)C(F)(F)F.O=C(O)C(F)(F)F.O=C1N(c2cccnc2)CCC12CCCN(Cc1ccco1)C2` (configuration not stated) | -8.022% | 2.645% and -24.42% |
| `COCCC1(CNC(=O)NCC2CCC2)CCC1` | 23.64% | 4.667% and 19.38% |
| `OC(COCc1ccccc1)CN1CCC(Cn2cccn2)CC1` (configuration not stated) | 12.73% | 8.36% |
| `CNCc1ccc([C@@H]2CN(C(C)=O)C[C@H]2C(N)=O)cc1.Cl` | -2.883% and -27.8% | -19.24% |
| `COC1CCN(CCNC(=O)NCC(C)c2cccc(C)c2)CC1` (configuration not stated) | 7.834% | -2.392% |
| `COCC(C)NC(=O)c1cn(C(C)(C)C)c2ncccc12` (configuration not stated) | -20.96% | 12.6% |
| `CN(C)CCN1CCC2(CCN(C(=O)c3ccc(F)cc3)CC2)C1=O.O=C(O)C(F)(F)F` | -5.109% | -18.28% |
| `CCn1cc(NC(=O)NCC(c2cccs2)N(C)C)cn1` (configuration not stated) | -16.38% | -1.602% |
| `CCC(CC)C(=O)NCC1(NC(C)c2ccccc2)CCOCC1` (configuration not stated) | -9.538% | -18.72% and 2.699% |
| `COc1cccc(N2CCN(C(=O)CN(C)c3cnccn3)CC2)c1` | -5.696% | -3.628% |
| `CC(c1ccncc1)N(C)S(C)(=O)=O` (configuration not stated) | -14.23% | 17.83% |
| `Cc1cc(C)n(CC(=O)NC(Cc2ccsc2)c2ccccn2)c(=O)n1.Cl` (configuration not stated) | 7.312% | -19.1% |
| `Cc1nc(C)n(CC2CCCN2Cc2nc(-c3ccco3)no2)n1` (configuration not stated) | 9.562% | -1.018% |
| `COc1cc(C2CC(=O)NCc3nc4sccn4c32)cc(OC)c1O` (configuration not stated) | 4.5% | 4.873% and 0.2663% |
| `Cc1ccsc1CN(CCN(C)C)C(=O)c1ccccc1C#N` | -7.411% and -1.772% | -9.258% and -2.949% |
| `Cc1ccc(-c2nc(CN3CCOC(c4ccccc4)C3)cs2)o1` (configuration not stated) | 23.35% | 51.2% |

Some entries from above, unchanged:

Compound,A,B
COCC[C@]1(O)CCN(C(=O)C2CCN(C3CCCC3)CC2)C[C@H]1C,22.22%,-8.246%
O=C(NC1CCc2c(ccc(=O)n2CC2CC2)C1)c1ccsc1 (configuration not stated),1.377%,4.647% and -0.2869%
O=C(O)C(F)(F)F.c1cnc(NCc2nnn3c2CN(Cc2cccs2)CCC3)nc1,-12.55%,0.869%
COCCCSc1ccc(NCc2ccc(C)cn2)cc1,15.48%,35.96% and 44.38%
CC(C)N1CCC(Nc2ccn(Cc3ccccn3)n2)C1=O (configuration not stated),10.92% and -2.448%,-2.31% and 20.42%
COc1cc(C2CC(=O)NCc3nc4sccn4c32)cc(OC)c1O (configuration not stated),4.5%,4.873% and 0.2663%

Measurements from “University of Dundee, Small-Polar-MMV Screening Library” (2021), ChEMBL document CHEMBL3988442.